# Where a name gives a salt, the structure may show the parent alone. Some of the results follow. Hit calls seldom repeat between salt and free forms of one compound.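 Kinases were expressed as nanoluciferase fusions in K562 cells and luminescence was read every 4 h between 2 and 18 h as percent of control, DMSO set to 100% and a positive control to 0%. A time point counts as decreased when the signal drops significantly (2 sigma). The hit call is the authors' own, does not follow from the count of time points alone, and its rule is not shown.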
# The chains behind the UniProt entries cited, without tags or fusion partners. Where a name states a change or a piece, a line headed by the entry shows the natural chain unless it says otherwise.
# UniProt P51451: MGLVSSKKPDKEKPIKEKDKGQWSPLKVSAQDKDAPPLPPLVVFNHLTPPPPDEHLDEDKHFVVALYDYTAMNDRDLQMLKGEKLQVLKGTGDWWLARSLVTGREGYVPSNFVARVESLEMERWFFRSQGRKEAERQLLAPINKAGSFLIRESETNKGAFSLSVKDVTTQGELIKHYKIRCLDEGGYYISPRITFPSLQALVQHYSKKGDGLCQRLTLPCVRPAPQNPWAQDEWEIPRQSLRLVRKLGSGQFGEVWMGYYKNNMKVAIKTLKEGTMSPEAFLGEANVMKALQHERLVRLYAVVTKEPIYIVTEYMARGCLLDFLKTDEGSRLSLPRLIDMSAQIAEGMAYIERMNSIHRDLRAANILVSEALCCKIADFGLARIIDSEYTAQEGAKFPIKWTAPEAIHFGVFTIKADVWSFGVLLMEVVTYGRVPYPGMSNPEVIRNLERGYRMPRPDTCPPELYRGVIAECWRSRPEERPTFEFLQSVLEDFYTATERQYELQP
# Target: BLK (UniProt P51451)
# Experiment: kinase-Nluc reporter destabilization hit call (1 = scored as downregulated) (binary); higher = compound decreases kinase abundance
# Settings: K562; 2-18 h
row,Structure (SMILES),kinase-Nluc reporter destabilization hit call
1,COc1cc2nccc(Oc3ccc(NC(=O)NC4CC4)c(Cl)c3)c2cc1C(N)=O [Lenvatinib] (10 µM),inactive: 0
2,COc1ccc2c(OCc3nnc4ccc(-c5ccccc5)nn34)ccnc2c1 (2 µM),inactive: 0
3,COc1cc2ncnc(Nc3ccc(Cl)cc3F)c2cc1OC (10 µM),inactive: 0
4,N#Cc1c(C2CCNCC2)cc(-c2c(O)cccc2OCC2CC2)nc1N [ACHP (Hydrochloride)] (10 µM),inactive: 0
5,CNC(=O)c1c(F)cccc1Nc1nc(Nc2cc3c(cc2OC)CCN3C(=O)CN(C)C)nc2[nH]ccc12 (10 µM),active: 1
6,COc1cc2c(N3CCN(C(=O)Nc4ccc(OC(C)C)cc4)CC3)ncnc2cc1OCCCN1CCCCC1 [Tandutinib (hydrochloride)] (10 µM),inactive: 0
7,CN1CCN(c2cccc(Nc3nc4c(-c5ccc(S(C)(=O)=O)cc5)cccn4n3)c2)CC1 (10 µM),inactive: 0
8,Cn1cc(-c2ccc3c(c2)CCN3C(=O)Cc2cccc(C(F)(F)F)c2)c2c(N)ncnc21 (2.5 µM),inactive: 0
9,O=Nc1c(-c2c(O)[nH]c3ccc(F)cc23)[nH]c2ccccc12 [5'-Fluoroindirubinoxime] (10 µM),inactive: 0
10,C=C(CC[C@@H](C(=O)O)[C@H]1[C@H](O)C[C@@]2(C)C3=C(CC[C@]12C)[C@@]1(C)CC[C@H](OC(C)=O)C(C)(C)[C@@H]1CC3)C(C)C [Pachymic acid] (10 µM),inactive: 0
11,Cc1cc(Nc2ncnc3ccc(NC4=NC(C)(C)CO4)cc23)ccc1Oc1ccn2ncnc2c1 [Tucatinib] (2.5 µM),inactive: 0
12,CCNc1nc(Nc2cc(F)c(C(=O)N3CCOCC3)cc2OC)ncc1C(F)(F)F [GNE-7915 (tosylate)] (10 µM),inactive: 0
13,Cc1ccc(C(=O)Nc2ccc(Oc3cc4cnn(C)c4cc3-c3cn[nH]c3)c(F)c2)c(=O)n1-c1ccc(F)cc1 [Merestinib dihydrochloride] (2.5 µM),inactive: 0
14,Nc1ncnc2c1c(-c1cccc(OCc3ccccc3)c1)cn2C1CC(CN2CCC2)C1 (centres undefined) (2.5 µM),inactive: 0
15,Cn1cnc2c(F)c(Nc3ccc(Br)cc3Cl)c(C(=O)NOCCO)cc21 [Selumetinib (sulfate)] (10 µM),inactive: 0
16,Cc1cc(Nc2ncnc3ccc(NC4=NC(C)(C)CO4)cc23)ccc1Oc1ccn2ncnc2c1 [Tucatinib (hemiethanolate)] (2.5 µM),inactive: 0
17,Cc1cc2ncc(-c3ccc(O)c(O)c3)nc2cc1C [Tyrphostin AG1433] (10 µM),inactive: 0
18,CCN1CCN(Cc2ccc(Nc3ncc(F)c(-c4cc(F)c5nc(C)n(C(C)C)c5c4)n3)nc2)CC1 [Abemaciclib (methanesulfonate)] (10 µM),inactive: 0
19,Cn1cnc2c(F)c(Nc3ccc(Br)cc3Cl)c(C(=O)NOCCO)cc21 [Selumetinib] (10 µM),inactive: 0
20,S=C(SSC(=S)N1CCOCC1)N1CCOCC1 (10 µM),inactive: 0
21,Cn1nccc1Nc1nccc(-c2ccn([C@H](CO)c3ccc(Cl)c(F)c3)c(=O)c2)n1 [Ravoxertinib hydrochloride] (10 µM),inactive: 0
22,Cc1ccc(C(=O)Nc2ccc(Oc3cc4cnn(C)c4cc3-c3cn[nH]c3)c(F)c2)c(=O)n1-c1ccc(F)cc1 [Merestinib] (2.5 µM),inactive: 0
23,c1ccc(-c2[nH]ncc2-c2ccnc3ccccc23)nc1 (10 µM),inactive: 0
24,O=C(CSC1=NCCN1)NC1CCCCCC1 [ICCB-19 (hydrochloride)] (2.5 µM),inactive: 0
25,Cn1cc(-c2cnn3c(N)c(Br)c([C@@H]4CCCNC4)nc23)cn1 (2.5 µM),inactive: 0
26,O=C(Nc1cn[nH]c1-c1ccccn1)c1nn(C2CCNCC2)cc1Cl (10 µM),inactive: 0
27,Cc1nc(-c2cn3c(n2)-c2ccc(-c4cnn(C(C)(C)C(N)=O)c4)cc2OCC3)n(C(C)C)n1 [Taselisib] (10 µM),inactive: 0
28,O=C(NCCN1CCOCC1)c1cc2c(Oc3ccc(NC(=O)C4(C(=O)Nc5ccc(F)cc5)CC4)cc3)ccnc2[nH]1 [Tyrosine kinase inhibitor] (10 µM),inactive: 0
29,CN(CC(=O)N(Cc1ccc(C2CCCCC2)cc1)c1ccc(C(=O)NO)cc1)S(=O)(=O)c1c(F)c(F)c(F)c(F)c1F (2.5 µM),inactive: 0

# Reformatted with tabs: entries from further up
row	Structure (SMILES)	kinase-Nluc reporter destabilization hit call
11	Cc1cc(Nc2ncnc3ccc(NC4=NC(C)(C)CO4)cc23)ccc1Oc1ccn2ncnc2c1 [Tucatinib] (2.5 µM)	inactive: 0
12	CCNc1nc(Nc2cc(F)c(C(=O)N3CCOCC3)cc2OC)ncc1C(F)(F)F [GNE-7915 (tosylate)] (10 µM)	inactive: 0
